This is one part of the list. These are raw signals, not scaled to a control.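 In the initial screen, polymyxin B was used at a concentration that permeabilizes Salmonella's outer membrane but not its inner membrane. Maximum growth was set by DMSO wells with or without polymyxin B. Since plates varied, data were ranked per plate, and compounds giving the lowest OD600 advanced as hits.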
System: Salmonella enterica serovar Typhimurium SL1344
Test: bacterial growth OD600 after 18 h with compound and polymyxin B; higher = more bacterial growth (less inhibition)
Conditions: 50 µM, Mueller-Hinton broth

Structure (SMILES)	bacterial growth OD600 (polymyxin B 1 µg/mL)	bacterial growth OD600 (polymyxin B 0.75 µg/mL)
COc1ccc(OCC(=O)N2CCCC(CNC(=O)c3ccc(F)cc3)C2)cc1 (centres undefined)	0.888	–
O=C(Cc1cccnc1)NCc1cccnc1Oc1cccc(C(F)(F)F)c1	–	0.778
COCc1ccc(C(=O)Nc2ccc(-c3nc(CNC(=O)Cc4csc(C)n4)c(C)o3)cc2)o1	–	0.839
CC(C(=O)N1CCC(CCC(=O)NCc2cccc(Cl)c2)CC1)n1cncn1 (centres undefined)	0.92	–
CCC1C(=O)NCCN1c1ccc(-c2nc(CCCc3ccccc3)no2)cn1 (centres undefined)	–	0.006
CC(=O)NCCNC(=O)C1(N(C)C)Cc2ccccc2C1	–	0.825
Cc1c[nH]c(C(=O)N2CCC(C3CCN(Cc4ccc(Cl)cc4)C3)CC2)n1 (centres undefined)	–	0.787
COCCNC(=O)c1ccc(OC)cc1OC1CCN(Cc2nc3ccccc3[nH]2)CC1	–	0.951
Cc1cccc(NC(=O)CCC2CCN(C(=O)CCn3cncn3)CC2)c1	0.964	–

Two records picked at random from those above:
Structure (SMILES)	bacterial growth OD600 (polymyxin B 1 µg/mL)	bacterial growth OD600 (polymyxin B 0.75 µg/mL)
O=C(Cc1cccnc1)NCc1cccnc1Oc1cccc(C(F)(F)F)c1	–	0.778
Cc1cccc(NC(=O)CCC2CCN(C(=O)CCn3cncn3)CC2)c1	0.964	–

From the supplement of paper PMC12889115
